Source: doi:10.1101/2025.02.06.636796
Where a chain is given by its changes, count along the chain named. Results are given in words; binding and its absence hold for the method and conditions named. Binding seen in cells or lysates may run through a third protein. Some binding calls cover weakened binding; strength is not graded here. Tags and fused reporters may be left off the sequences shown.

Molecular target: T1, Trim69 wild type, tagged (YFP- or Flag-), of the co-immunoprecipitation (human) (UniProt Q86WT6)
T1 sequence: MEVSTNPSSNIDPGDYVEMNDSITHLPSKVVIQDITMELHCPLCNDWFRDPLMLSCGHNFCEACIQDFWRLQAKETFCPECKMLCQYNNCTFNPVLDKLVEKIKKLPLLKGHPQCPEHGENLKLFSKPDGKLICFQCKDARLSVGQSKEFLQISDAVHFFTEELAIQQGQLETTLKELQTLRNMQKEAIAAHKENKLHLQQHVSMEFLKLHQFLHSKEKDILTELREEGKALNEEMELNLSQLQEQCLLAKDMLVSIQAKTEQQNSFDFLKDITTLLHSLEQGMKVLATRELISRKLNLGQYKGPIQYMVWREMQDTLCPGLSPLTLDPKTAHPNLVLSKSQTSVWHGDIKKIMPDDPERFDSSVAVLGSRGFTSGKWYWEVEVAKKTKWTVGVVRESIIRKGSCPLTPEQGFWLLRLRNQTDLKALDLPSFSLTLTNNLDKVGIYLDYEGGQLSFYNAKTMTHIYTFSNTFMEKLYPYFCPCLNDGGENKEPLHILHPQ
Test: co-IP

B1: Trim69 SPRY-7A mutant, tagged (YFP- or Flag-), of the co-immunoprecipitation (protein, UniProt Q86WT6 1-500)
chain: T1 sequence with K351A, K352A, R401A, K402A, R417A, R419A, K425A
With B1 the binding was “binds”.
